In the data set the target is AvaII restriction endonuclease (wild type) (UniProt Q8YYB7). As to the kind of experiment: X-ray crystallography. To be noted: Ca2+, recombinant protein.

The exact form of at least one protein or probe is not confirmed.

Consider “GTAGGACCATC (double strand) [11-bp dsDNA used for crystals]”, for which the binding result (DNA partially cleaved, closed specific complex) is given as “binds”.
“GUAGGACCAUG / CCATGGTCCTA [11-nt RNA/DNA heteroduplex used for crystals]”: the binding result (1.8 A, open scanning complex, backbone contacts only, disordered duplex, DNA:RNA hybrid) is reported as “binds”.

The values are drawn from paper PMC7337904.
